{"source": "the supplement of paper PMC3334620", "note": "In all, about 33,000 sequences were measured (“E-score (-0.5 to 0.5)”: median about -0.0059, highest 2% from about 0.26 on). This is one part of the list."}
{"target": "T1, Cin5 (UniProt P40917)", "T1 sequence": "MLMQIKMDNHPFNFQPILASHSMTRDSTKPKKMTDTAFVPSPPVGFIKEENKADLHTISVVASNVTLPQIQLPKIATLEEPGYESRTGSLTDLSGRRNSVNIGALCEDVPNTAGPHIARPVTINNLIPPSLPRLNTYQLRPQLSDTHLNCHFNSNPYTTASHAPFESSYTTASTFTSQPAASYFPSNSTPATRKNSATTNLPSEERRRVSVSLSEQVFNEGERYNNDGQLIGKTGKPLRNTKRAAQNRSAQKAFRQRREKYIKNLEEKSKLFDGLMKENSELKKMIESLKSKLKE", "experiment": "PBM E-score (8-mer binding enrichment) (E-score (-0.5 to 0.5)); higher = stronger / more preferred TF binding", "settings": "protein concentration: 100 nM; construct: GST-full length", "how_it_was_run": "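Full-length yeast transcription factors or their DNA-binding domains, GST-tagged and expressed with PURExpress, were applied at about 100-200 nM to universal all-10-mer Agilent arrays. These arrays had been made double-stranded by primer extension on fresh or once-stripped slides. Detection used fluorescent anti-GST, normalisation used masliner, and E-scores for ungapped eight-base words pooled with reverse complements came from the Universal PBM Analysis Suite.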"}
{"sequence": "CAAGGCCC", "PBM E-score": -0.212}
{"sequence": "ACTATATG", "PBM E-score": 0.117}
{"sequence": "TTAGTGAA", "PBM E-score": 0.0467}
{"sequence": "GAGGATGC", "PBM E-score": -0.0952}
{"sequence": "GATGCCCA", "PBM E-score": 0.0818}
{"sequence": "TACCAGGA", "PBM E-score": 0.128}
{"sequence": "AACCTCAG", "PBM E-score": -0.0196}
{"sequence": "AAGCAAGG", "PBM E-score": -0.0167}
{"sequence": "ATGTAGCA", "PBM E-score": 0.0135}
{"sequence": "TAAAGTCA", "PBM E-score": 0.157}
{"sequence": "CACCCTAC", "PBM E-score": 0.0139}
{"sequence": "CTGGCGCC", "PBM E-score": 0.052}
{"sequence": "CGTGATCC", "PBM E-score": 0.0158}
{"sequence": "CTGAGCTC", "PBM E-score": 0.0124}
{"sequence": "CCCTAAAG", "PBM E-score": -0.27}
{"sequence": "CGGGGAGA", "PBM E-score": -0.131}
{"sequence": "CTCGCTCA", "PBM E-score": 0.056}
{"sequence": "GCATATAA", "PBM E-score": 0.135}
{"sequence": "CTGCCTTA", "PBM E-score": -0.109}
{"sequence": "ATCGGATA", "PBM E-score": 0.213}
{"sequence": "CACATTGC", "PBM E-score": 0.13}
{"sequence": "CTTCATTC", "PBM E-score": 0.0795}
{"sequence": "ATATCTGG", "PBM E-score": 0.0244}
{"sequence": "ACTACGAC", "PBM E-score": -0.0576}
{"sequence": "CTCCGCAG", "PBM E-score": -0.0786}
{"sequence": "CGTAGAAG", "PBM E-score": 0.00718}
{"sequence": "GGTTTGAC", "PBM E-score": -0.177}
{"sequence": "ATACGTGG", "PBM E-score": -0.0468}
{"sequence": "TAAATCCA", "PBM E-score": 0.128}
{"sequence": "GTCCCCTA", "PBM E-score": -0.133}
{"sequence": "CATACGAA", "PBM E-score": 0.129}
{"sequence": "CTTCCCGC", "PBM E-score": 0.107}
{"sequence": "AGTGAACT", "PBM E-score": 0.035}
{"sequence": "AATAAATC", "PBM E-score": 0.0611}
{"sequence": "CCTAATCC", "PBM E-score": 0.029}
{"sequence": "AAAAGGCG", "PBM E-score": -0.125}
{"sequence": "GATAAGGC", "PBM E-score": -0.138}
{"sequence": "GAGTTGAA", "PBM E-score": 0.0453}
{"sequence": "CGAAGGCC", "PBM E-score": -0.261}
{"sequence": "AGAGCGGG", "PBM E-score": -0.116}
{"sequence": "ACCCATCA", "PBM E-score": 0.0871}
{"sequence": "AGGGCCCA", "PBM E-score": -0.179}
{"sequence": "AACTGGCT", "PBM E-score": -0.159}
{"sequence": "ATCGGTGG", "PBM E-score": -0.16}
{"sequence": "ATCCGATG", "PBM E-score": 0.13}
{"sequence": "CAGAGCAC", "PBM E-score": -0.123}
{"sequence": "GGGGGCAC", "PBM E-score": -0.382}
{"sequence": "GATCTGGC", "PBM E-score": -0.0261}
{"sequence": "CGCACGCG", "PBM E-score": -0.103}
{"sequence": "GAATGGGC", "PBM E-score": 0.0258}
{"sequence": "ACTAAAGG", "PBM E-score": -0.13}
{"sequence": "ATTCACAA", "PBM E-score": 0.241}
{"sequence": "CCCCTTCC", "PBM E-score": -0.231}
{"sequence": "AAGGAGAC", "PBM E-score": -0.22}
{"sequence": "CGCGTTTA", "PBM E-score": 0.0808}
{"sequence": "AGGTAGCA", "PBM E-score": -0.15}
{"sequence": "CGAAGCCG", "PBM E-score": -0.0662}
{"sequence": "ACATGCTA", "PBM E-score": -0.0909}
{"sequence": "GGTAATAA", "PBM E-score": 0.249}
{"sequence": "AGCAATAT", "PBM E-score": 0.157}
{"sequence": "AGAGTCAA", "PBM E-score": -0.118}
{"sequence": "CTAATTAC", "PBM E-score": 0.24}
{"sequence": "ATGTACGG", "PBM E-score": 0.0858}
{"sequence": "CTTGTGGA", "PBM E-score": 0.0287}
{"sequence": "CATGGGAA", "PBM E-score": 0.0348}
{"sequence": "GATGGTAA", "PBM E-score": -0.0229}
{"sequence": "CGACGTCG", "PBM E-score": -0.0048}
{"sequence": "GACAGAGA", "PBM E-score": -0.033}
{"sequence": "GATTATCA", "PBM E-score": 0.201}
{"sequence": "AGTTGGCG", "PBM E-score": -0.0813}
{"sequence": "CGAAGTCG", "PBM E-score": 0.147}
{"sequence": "ACCATAGG", "PBM E-score": -0.251}
{"sequence": "GAGTTAGA", "PBM E-score": -0.13}
{"sequence": "AATAAAAA", "PBM E-score": 0.21}
{"sequence": "ACCCATTA", "PBM E-score": 0.0824}
{"sequence": "GCGTATCC", "PBM E-score": -0.217}
{"sequence": "GTGCTTGA", "PBM E-score": -0.0478}
{"sequence": "CCCACGCG", "PBM E-score": -0.146}
{"sequence": "CGAACACG", "PBM E-score": -0.0466}
{"sequence": "CAAGTGTG", "PBM E-score": 0.0228}
{"sequence": "AAGGGGCT", "PBM E-score": -0.0619}
{"sequence": "CCGATGCG", "PBM E-score": -0.0501}
{"sequence": "GGCTTGGA", "PBM E-score": -0.18}
{"sequence": "CGGTACGA", "PBM E-score": -0.14}
{"sequence": "AGTCGTAT", "PBM E-score": -0.0467}
{"sequence": "CTTAAATA", "PBM E-score": 0.0164}
